Reference: paper PMC10448038
These are yes or no findings as the source states them, for the method shown. Some results given as binding are weak or reduced against the parent protein; the word gives no strength.

Protein sequences, listed by entry. Tags and fused reporters are not part of them. Lines headed by an entry give the natural chain unless they say otherwise; changes in a name come on top. Chains listed by the source or under a name are the forms on record and can include a tag or linker. Residues count along the entry.
UniProt Q12884, residues 30-760: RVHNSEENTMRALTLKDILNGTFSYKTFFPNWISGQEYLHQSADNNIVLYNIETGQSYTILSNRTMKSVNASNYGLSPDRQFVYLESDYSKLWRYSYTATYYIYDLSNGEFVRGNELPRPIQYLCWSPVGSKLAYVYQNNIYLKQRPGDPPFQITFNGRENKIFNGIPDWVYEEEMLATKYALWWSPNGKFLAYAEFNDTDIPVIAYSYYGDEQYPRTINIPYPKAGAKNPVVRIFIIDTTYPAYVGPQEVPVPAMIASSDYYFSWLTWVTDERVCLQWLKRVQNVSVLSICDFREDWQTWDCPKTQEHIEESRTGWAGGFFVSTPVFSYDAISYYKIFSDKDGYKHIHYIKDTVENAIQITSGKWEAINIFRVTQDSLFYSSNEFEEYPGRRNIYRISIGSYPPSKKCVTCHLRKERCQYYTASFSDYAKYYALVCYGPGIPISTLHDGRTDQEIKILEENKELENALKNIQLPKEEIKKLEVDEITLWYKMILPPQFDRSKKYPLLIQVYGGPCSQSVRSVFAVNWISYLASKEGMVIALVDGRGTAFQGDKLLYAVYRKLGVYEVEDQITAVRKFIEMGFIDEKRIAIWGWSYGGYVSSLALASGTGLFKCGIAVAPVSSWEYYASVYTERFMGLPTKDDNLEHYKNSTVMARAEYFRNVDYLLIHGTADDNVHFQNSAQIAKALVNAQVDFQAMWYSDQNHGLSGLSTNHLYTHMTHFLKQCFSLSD
scribble planar cell polarity protein (SCRIB), pGADT7-SCRIB prey (Q14160-1, form named): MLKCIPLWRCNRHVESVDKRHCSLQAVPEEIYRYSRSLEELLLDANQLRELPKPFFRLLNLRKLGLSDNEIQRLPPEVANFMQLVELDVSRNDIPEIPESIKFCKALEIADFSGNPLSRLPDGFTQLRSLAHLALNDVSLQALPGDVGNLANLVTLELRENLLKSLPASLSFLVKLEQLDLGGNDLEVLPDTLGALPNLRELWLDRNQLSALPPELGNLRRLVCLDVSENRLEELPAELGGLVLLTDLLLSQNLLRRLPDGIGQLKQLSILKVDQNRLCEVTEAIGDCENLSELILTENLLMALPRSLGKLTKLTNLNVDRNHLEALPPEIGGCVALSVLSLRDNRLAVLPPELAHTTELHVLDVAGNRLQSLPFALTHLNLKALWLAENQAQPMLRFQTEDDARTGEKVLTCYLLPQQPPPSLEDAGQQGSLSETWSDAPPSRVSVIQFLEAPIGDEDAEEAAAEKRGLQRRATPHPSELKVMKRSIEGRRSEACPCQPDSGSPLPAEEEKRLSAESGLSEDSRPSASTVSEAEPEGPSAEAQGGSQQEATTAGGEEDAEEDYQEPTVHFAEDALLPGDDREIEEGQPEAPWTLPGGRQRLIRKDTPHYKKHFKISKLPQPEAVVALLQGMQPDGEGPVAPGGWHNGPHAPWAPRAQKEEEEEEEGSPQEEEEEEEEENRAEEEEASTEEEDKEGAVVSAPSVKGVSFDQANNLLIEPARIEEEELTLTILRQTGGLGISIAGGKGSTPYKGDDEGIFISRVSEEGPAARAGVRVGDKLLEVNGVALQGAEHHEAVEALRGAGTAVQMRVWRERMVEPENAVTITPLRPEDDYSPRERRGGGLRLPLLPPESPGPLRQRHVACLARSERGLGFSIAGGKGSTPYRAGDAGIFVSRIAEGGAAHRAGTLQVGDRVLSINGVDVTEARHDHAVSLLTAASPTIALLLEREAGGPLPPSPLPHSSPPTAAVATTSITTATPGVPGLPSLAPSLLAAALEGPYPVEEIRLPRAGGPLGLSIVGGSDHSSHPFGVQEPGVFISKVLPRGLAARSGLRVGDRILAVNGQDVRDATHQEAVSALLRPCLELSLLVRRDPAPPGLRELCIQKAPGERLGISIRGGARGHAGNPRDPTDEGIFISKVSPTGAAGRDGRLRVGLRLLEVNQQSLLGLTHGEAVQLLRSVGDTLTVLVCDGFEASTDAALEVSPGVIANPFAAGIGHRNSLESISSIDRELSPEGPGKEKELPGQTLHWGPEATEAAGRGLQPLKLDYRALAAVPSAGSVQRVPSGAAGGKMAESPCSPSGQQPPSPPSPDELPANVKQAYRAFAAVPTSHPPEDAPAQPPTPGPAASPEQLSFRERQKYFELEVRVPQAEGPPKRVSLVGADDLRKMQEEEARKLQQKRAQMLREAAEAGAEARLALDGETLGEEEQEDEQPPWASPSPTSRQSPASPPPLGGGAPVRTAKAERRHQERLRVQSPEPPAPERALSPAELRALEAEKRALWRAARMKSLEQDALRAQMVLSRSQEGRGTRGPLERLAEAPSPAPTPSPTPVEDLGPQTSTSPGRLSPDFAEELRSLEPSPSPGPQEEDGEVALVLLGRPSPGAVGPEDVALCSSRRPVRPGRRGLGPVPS

Target: fibroblast activation protein (FAP), pGBKT7-FAP bait (UniProt Q12884)
Assay: two-hybrid; bait pGBKT7-FAP, prey pGADT7-SCRIB; SD/-His/-Ade/-Trp/-Leu/X/A plates; alpha-galactosidase activity

Substance: scribble planar cell polarity protein (SCRIB), pGADT7-SCRIB prey (from UniProt Q14160-1 1-1630)
- binding: binds
